In the supplement of paper PMC9744312:
Counter-ions that a name gives are not always drawn. The list shows a part of the results. The data scatter; read single values as rough.

test system: Peyronie's disease tunica albuginea primary fibroblasts; test: inhibition of TGF-beta1-induced alpha-SMA expression (myofibroblast transformation), relative to TGF-beta1-only and untreated controls; higher = stronger inhibition of myofibroblast transformation; details: 10 µM; TGF-beta1 10 ng/mL; 72 h

Row | SMILES | inhibition of TGF-beta1-induced alpha-SMA expression
1 | C=CCNC1=C2C[C@@H](C)C[C@H](OC)[C@H](O)[C@@H](C)/C=C(\C)[C@H](OC(N)=O)[C@@H](OC)/C=C\C=C(/C)C(=O)NC(=CC1=O)C2=O [Tanespimycin (17-AAG)] | > 100%
2 | Cc1cccc(N(C)C(=S)Oc2ccc3ccccc3c2)c1 [Tolnaftate] | 16.3%
3 | CCN1CCCC1CNC(=O)c1cc(S(N)(=O)=O)ccc1OC (stereo unspecified) [Sulpiride] | -51.4%
4 | COc1ccc(-c2ccc3cc(C(=O)O)ccc3c2)cc1C12CC3CC(CC(C3)C1)C2 [Adapalene] | 61.6%
5 | NCCc1ccc(O)c(O)c1 [Dopamine HCl] | 39.1%
6 | C[C@H](CS)C(=O)N1CCC[C@H]1C(=O)O [Captopril] | -21.3%
7 | CN(Cc1cc(Br)cc(Br)c1N)C1CCCCC1 [Bromhexine HCl] | 21.7%
8 | COC(=O)N[C@H](C(=O)N1CC2(CC2)C[C@H]1c1nc(-c2ccc3c(c2)C(F)(F)c2cc(-c4ccc5[nH]c([C@@H]6[C@H]7CC[C@H](C7)N6C(=O)[C@@H](NC(=O)OC)C(C)C)nc5c4)ccc2-3)c[nH]1)C(C)C [Ledipasvir (GS5885)] | 3.16%
9 | COc1ccc(CNc2nc(N3CCC[C@H]3CO)ncc2C(=O)NCc2ncccn2)cc1Cl [Avanafil] | 14.2%
10 | CC(=O)OCC(=O)[C@@]1(O)CC[C@H]2[C@@H]3CCC4=CC(=O)C=C[C@]4(C)[C@H]3[C@@H](O)C[C@@]21C [Prednisolone Acetate] | 44.3%
11 | Cc1c(Nc2ncccc2C(=O)O)cccc1C(F)(F)F [Flunixin Meglumin] | 39.9%
12 | CC[C@H](c1ccc(O)cc1)[C@@H](CC)c1ccc(O)cc1 [Hexestrol] | 14.5%
13 | OC[C@@H](O)CN1CCN(c2ccccc2)CC1 [Levodropropizine] | 17.6%
14 | N#CC1(c2ccc(NC(=O)c3cccnc3NCc3ccncc3)cc2)CCCC1 | -27.8%
15 | C=CC[N+]1([C@H]2C[C@H]3[C@@H]4CC[C@H]5C[C@H](O)[C@@H](N6CCOCC6)C[C@]5(C)[C@H]4CC[C@]3(C)[C@H]2OC(C)=O)CCCC1 [Rocuronium Bromide] | 17.3%
16 | CC(C)(C)NC(=O)[C@H]1CC[C@H]2[C@@H]3CC[C@H]4NC(=O)C=C[C@]4(C)[C@H]3CC[C@]12C [Finasteride] | 18.4%
17 | Nc1nc(N)c2nc(-c3ccccc3)c(N)nc2n1 [Triamterene] | 21.9%
18 | C=C1CC[C@H](O)C/C1=C/C=C1\CCC[C@]2(C)[C@@H]([C@H](C)/C=C/[C@H](C)C(C)C)CC[C@@H]12 [Vitamin D2] | -0.924%
19 | CCCCOc1ccc(C(=O)CCN2CCCCC2)cc1 [Dyclonine HCl] | 17.6%
20 | Cn1nnc2c(C(N)=O)ncn2c1=O [Temozolomide] | 22.1%
21 | CC(C)(C)CC(C)(C)c1ccc(OCCOCC[N+](C)(C)Cc2ccccc2)cc1 [Benzethonium Chloride] | 74.1%
22 | OC(CCN1CCCC1)(c1ccccc1)C1CCCCC1 (stereo unspecified) [Procyclidine HCl] | 22.6%
23 | CC(CN(C)C)CN1c2ccccc2CCc2ccccc21 (stereo unspecified) [Trimipramine Maleate] | 37.3%

Row | SMILES | inhibition of TGF-beta1-induced alpha-SMA expression
24 | CCS(=O)(=O)N1CCN(c2ccc(Nc3ncc(C(N)=O)c(NC4CC4)n3)cc2)CC1 | 36.5%
25 | CC(C)C(=O)c1c(C(C)C)nn2ccccc12 [Ibudilast] | 69.6%
26 | CC(=O)NC(CC(C)C)C(=O)O (stereo unspecified) [Acetylleucine] | 18.8%
27 | C[N+](C)(C)C[C@H](O)CC(=O)[O-] [L-carnitine] | 9.45%
28 | CCOC(=O)/C=C(C)/C=C/C=C(C)/C=C/c1c(C)cc(OC)c(C)c1C [Etretinate] | 76.4%
29 | CC(C)(C)c1cc(NC(=O)Nc2ccc(-c3cn4c(n3)sc3cc(OCCN5CCOCC5)ccc34)cc2)no1 [Quizartinib (AC220)] | 20.6%
30 | O=C(/C=C/c1cccc(S(=O)(=O)Nc2ccccc2)c1)NO [Belinostat (PXD101)] | > 100%
31 | NC[C@H]1O[C@H](O[C@H]2[C@H](O)[C@@H](O[C@H]3O[C@H](CO)[C@@H](O)[C@H](N)[C@H]3O)[C@H](N)C[C@@H]2N)[C@H](N)C[C@@H]1O [Tobramycin sulfate] | 4.66%
32 | NC[C@H]1O[C@H](O[C@H]2[C@H](O)[C@@H](O[C@H]3O[C@H](CO)[C@@H](O)[C@H](N)[C@H]3O)[C@H](N)C[C@@H]2N)[C@H](N)C[C@@H]1O [Tobramycin] | -11%
33 | CCN(CCCCOC(=O)c1ccc(OC)c(OC)c1)C(C)Cc1ccc(OC)cc1 (stereo unspecified) [Mebeverine Hydrochloride] | 13.5%
34 | CCN(CC)C(=O)C1(c2ccccc2)CC1CN (stereo unspecified) [Milnacipran HCl] | 25.1%
35 | Cc1cc(C(C)(C)C)cc(C)c1CC1=NCCN1 [Xylometazoline HCl] | 21%
36 | CC#CCn1c(N2CCC[C@@H](N)C2)nc2c1c(=O)n(Cc1nc(C)c3ccccc3n1)c(=O)n2C [Linagliptin] | 8.38%
37 | CCN(CC)CCOCCOC(=O)C1(c2ccccc2)CCCC1 [Pentoxyverine Citrate] | 13.1%
38 | N[C@H]1CONC1=O [L-Cycloserine] | 0.578%
39 | CNC(=O)c1ccc(N2C(=S)N(c3ccc(C#N)c(C(F)(F)F)c3)C(=O)C2(C)C)cc1F [Enzalutamide (MDV3100)] | 78.7%
40 | COc1cc2nc(N3CCN(C(=O)C4COc5ccccc5O4)CC3)nc(N)c2cc1OC (stereo unspecified) [Doxazosin Mesylate] | 12.7%
41 | Cc1nc(C(=O)NCC(=O)O)c(O)c2ccc(Oc3ccccc3)cc12 [Roxadustat (FG-4592)] | 36.6%
42 | [Cl][Mn][Cl] [Manganese chloride] | -0.0824%
43 | CCCCCCNC(=O)n1cc(F)c(=O)[nH]c1=O [Carmofur] | -50.7%
44 | CCC[C@@H]1C[C@@H](C(=O)N[C@@H]([C@H]2O[C@H](SC)[C@H](OP(=O)(O)O)[C@@H](O)[C@H]2O)[C@H](C)Cl)N(C)C1 [Clindamycin Phosphate] | 58.4%
45 | Nc1nc(=O)n([C@@H]2CS[C@H](CO)O2)cc1F [Emtricitabine] | 45%
46 | COc1ccc(Cl)cc1C(=O)NCCc1ccc(S(=O)(=O)NC(=O)NC2CCCCC2)cc1 [Glyburide (Glibenclamide)] | 7.42%

Some of the entries so far, as a markdown table.

| Row | SMILES | inhibition of TGF-beta1-induced alpha-SMA expression |
| --- | --- | --- |
| 17 | Nc1nc(N)c2nc(-c3ccccc3)c(N)nc2n1 [Triamterene] | 21.9% |
| 18 | C=C1CC[C@H](O)C/C1=C/C=C1\CCC[C@]2(C)[C@@H]([C@H](C)/C=C/[C@H](C)C(C)C)CC[C@@H]12 [Vitamin D2] | -0.924% |
